Changes are numbered by the printed parent chain. These are yes or no findings as the source states them, for the method shown. For some assays here: In cells and extracts the contact can be indirect. Some entries that bind do so weakly or less than the wild type. Where a sequence is shown, tags or fusion partners need not be part of it.

In experiment [1] the target is T1, MBP-JAZ9-8×His (recombinant, E. coli-expressed) (Arabidopsis) (UniProt Q8W4J8).
T1 sequence: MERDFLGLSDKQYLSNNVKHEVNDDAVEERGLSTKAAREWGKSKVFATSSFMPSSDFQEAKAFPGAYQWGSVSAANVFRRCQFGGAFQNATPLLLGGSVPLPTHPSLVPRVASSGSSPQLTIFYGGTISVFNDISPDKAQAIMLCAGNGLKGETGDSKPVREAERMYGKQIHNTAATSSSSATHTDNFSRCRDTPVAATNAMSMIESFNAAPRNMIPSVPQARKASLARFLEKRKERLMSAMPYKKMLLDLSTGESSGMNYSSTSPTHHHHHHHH
Description: Ni-resin pull-down with MBP-JAZ9-8×His, JA-Ile series, anti-c-Myc immunoblot. On the technique in general: In western blotting, separated proteins are transferred to a membrane and probed.

The target in experiment [2] is T1, MBP-JAZ9-8×His (recombinant, E. coli-expressed) (Arabidopsis). Description: Ni-resin pull-down with MBP-JAZ9-8×His, JA-Ile and COR series, anti-c-Myc immunoblot.

B1: COI1A384V-4×c-Myc (plant-expressed) (receptor, not shown: small tags and cut ends)
chain: MEDPDIKRCKLSCVATVDDVIEQVMTYITDPKDRDSASLVCRRWFKIDSETREHVTMALCYTATPDRLSRRFPNLRSLKLKGKPRAAMFNLIPENWGGYVTPWVTEISNNLRQLKSVHFRRMIVSDLDLDRLAKARADDLETLKLDKCSGFTTDGLLSIVTHCRKIKTLLMEESSFSEKDGKWLHELAQHNTSLEVLNFYMTEFAKISPKDLETIARNCRSLVSVKVGDFEILELVGFFKAAANLEEFCGGSLNEDIGMPEKYMNLVFPRKLCRLGLSYMGPNEMPILFPFAAQIRKLDLLYALLETEDHCTLIQKCPNLEVLETRNVIGDRGLEVLAQYCKQLKRLRIERGADEQGMEDEEGLVSQRGLIALAQGCQELEYMVVYVSDITNESLESIGTYLKNLCDFRLVLLDREERITDLPLDNGVRSLLIGCKKLRRFAFYLRQGGLTDLGLSYIGQYSPNVRWMLLGYVGESDEGLMEFSRGCPNLQKLEMRGCCFSERAIAAAVTKLPSLRYLWVQGYRASMTGQDLMQMARPYWNIELIPSRRVPEVNQQGEIREMEHPAHILAYYSLAGQRTDCPTTVRVLKEPI
notes: In protein extracts of transgenic Arabidopsis (coi1-30 background); C-terminal 4×c-Myc tag; also called pCOI1:COI1A384V-4×c-Myc
Turning to B1, the binding result in experiment [1] is recorded as “binds”.

B2: COI1WT-4×c-Myc (plant-expressed) (receptor)
chain: B1 chain with V384A
B2: the binding result in experiment [2] is listed as “binds”.

For the origin of these results see patent publication US20180135070A1 (BOARD OF TRUSTEES OF MICHIGAN STATE UNIVERSITY, published 2018).
